These are yes or no findings as the source states them, for the method shown. Some results given as binding are weak or reduced against the parent protein; the word gives no strength.
Legend:
[1] = biological target: T1, WASp 274 signature peptide (…) (human); test: capture of internal standard peptide, SRM-MS peak area, mAb compared with pAb
T1 sequence (peptide): AGISEAQLTDAETSK

[2] = biological target: T1, WASp 274 signature peptide (…) (human); test: capture of internal standard peptide, SRM-MS peak area
[3] = biological target: T2, BTK 407 signature peptide (…) (human); test: capture of internal standard peptide, SRM-MS peak area, mAb compared with pAb
T2 sequence (peptide): ELGTGQFGVVK

[4] = biological target: T2, BTK 407 signature peptide (…) (human); test: capture of internal standard peptide, SRM-MS peak area
[5] = biological target: T3, ATP7B 1056 signature peptide (…) (human); test: immuno-SRM (peptide immunoaffinity enrichment, SRM-MS) on DBS digests
T3 sequence (peptide): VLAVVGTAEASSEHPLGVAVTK

[6] = biological target: T4, CTNS 115 signature peptide (FLVIR) (human); test: multiplexed immuno-SRM (peptide immunoaffinity enrichment, SRM-MS) on DBS digests
T4 sequence (peptide): FLVIR

[7] = biological target: T4, CTNS 115 signature peptide (FLVIR) (human); test: immuno-SRM (peptide immunoaffinity enrichment, SRM-MS) on DBS digests
[8] = biological target: T5, SHPK 363 signature peptide (…) (human); test: multiplexed immuno-SRM (peptide immunoaffinity enrichment, SRM-MS) on DBS digests
T5 sequence (peptide): DTHLTITPTVLGER

B1: Anti-WASp 274 monoclonal antibody (antibody, V domains shown)
VH: QSVEESGGRLVTPGTPLTLTCTVSGFSLSTYAMTWVRQAPGKGLQWIGSFYIEGSASYANWANGRFTISKTSSTVNLKMTSPTVADTASYFCARGNPGGSSAVWGQGTLVTVSS
VL: IVLTQTPASVSAAVGGTVTISCQSSETVYKNNYLAWYQQKLGQPPKLLIYWASKLASGVPSRFKGSGSGTQFTLTISDVVCADAGTYYCAGYQSNIVDGTAFGGGTEVVVNG
[1]
  binding: binds
[2]
  binding: binds

B2: Anti-BTK 407 monoclonal antibody (antibody, V domains shown)
VH: QSVKESEGGLFKPTDTLTVTCTVSGFSLSRNEISWFRQAPGNGLEWIGGIGSPGRAYYATWAKSRSTITRNTNLNTVTLKMTSLTAADTATYFCARGDIWGPGTVVTVSS
VL: QVLTQTVSPVSAAVGSTVTINCQSSQSVYNNNRLAWYQQKPGQPPKGLIYSASTLASGVSSRFKGSGSGTQFTLTISDVQCDDAATYYCLGSYDCSTADCNAFGGGTEVVVKG
[3]
  binding: binds
[4]
  binding: binds

B3: Anti-ATP7B 1056 monoclonal antibody (antibody, V domains shown)
VH: QSLEESGGRLVTPGGSLTVTCTVSGFSLSSYWIIWVRQAPGEGLEWIGSSGPSGSAYYTSWVKGRFTISKTSTTVDLKMTGLTTEDTATYFCARAGGSDYDWFDLWGQGTLVTVSS
VL: QVLTQTPSPVSAAVGGTVTINCQSSPSVANNNWLSWFQQKPGQRPKLLIYGASTLASGVPSRFKGSGSGTQFTLTISDVQCDDAATYYCAGGHKTAEKNPFGGGTEVVVKG
[5]
  binding: binds

B4: Anti-CTNS 115 monoclonal antibody (antibody, V domains shown)
VH: QEQLVESGGGLVQPEGSLTLTCKASGFSFSTRDGVCWVRQAPGKGLEWIACIYRGISATTSYASWAKGRFTISKTSSTTVTLQMTSLTAADTATYFCARAWDLWGPGTLVTVSS
VL: DVVMTQTPASVSEPVGGTVTIKCQASQSIGSDLSWYQQKPGQPPKRLIYKASKVETGVPSRFSGSGSGTEFTLTISDLECADASTYYCQSIDFSKSYIGGAFGGGTEVVVKG
[6]
  binding: binds
[7]
  binding: binds

B5: Anti-SHPK 363 monoclonal antibody (antibody, V domains shown)
VH: QEQIEESGGGLVKPEGSLTLTCKVSGFDFSSNYFMCWVRQAPGKGLEWIGCILVGSGRTTFASWAKGRFTISKTSSTTVTLQMTSLTAADTATYFCARAWALWGPGTLVTVSS
VL: QVLTQTPSPVSAAVGGTVTISCQASQSVYNNNDLAWYQQKPGQPPKLLIYGASTLVSGVPSRFSGSGSGAQFTLTISDLECDDAATYYCQGGYDPRNYPFGGGTEVVVKG
[8]
  binding: binds

— patent publication US20250130245A1
